Results are given in words; binding and its absence hold for the method and conditions named. Binding seen in cells or lysates may run through a third protein. Some results given as binding are weak or reduced against the parent protein; the word gives no strength.
Target: HSPA5 (human (endogenous in A2780 and SKOV3)) (UniProt P11021)
Test: co-IP; lysate of OC cells incubated overnight with BECN1 or HSPA5 antibody, Protein A/G agarose beads, 4 °C 2 h; BECN1, HSPA5 and HMGCR detected by western blot; cells also with sh-BECN1, oe-BECN1, HMGCR overexpression or sh-ESM1

The chains behind the UniProt entries cited, without tags or fusion partners. Residues count along the entry.
UniProt P11021, residues 19-654: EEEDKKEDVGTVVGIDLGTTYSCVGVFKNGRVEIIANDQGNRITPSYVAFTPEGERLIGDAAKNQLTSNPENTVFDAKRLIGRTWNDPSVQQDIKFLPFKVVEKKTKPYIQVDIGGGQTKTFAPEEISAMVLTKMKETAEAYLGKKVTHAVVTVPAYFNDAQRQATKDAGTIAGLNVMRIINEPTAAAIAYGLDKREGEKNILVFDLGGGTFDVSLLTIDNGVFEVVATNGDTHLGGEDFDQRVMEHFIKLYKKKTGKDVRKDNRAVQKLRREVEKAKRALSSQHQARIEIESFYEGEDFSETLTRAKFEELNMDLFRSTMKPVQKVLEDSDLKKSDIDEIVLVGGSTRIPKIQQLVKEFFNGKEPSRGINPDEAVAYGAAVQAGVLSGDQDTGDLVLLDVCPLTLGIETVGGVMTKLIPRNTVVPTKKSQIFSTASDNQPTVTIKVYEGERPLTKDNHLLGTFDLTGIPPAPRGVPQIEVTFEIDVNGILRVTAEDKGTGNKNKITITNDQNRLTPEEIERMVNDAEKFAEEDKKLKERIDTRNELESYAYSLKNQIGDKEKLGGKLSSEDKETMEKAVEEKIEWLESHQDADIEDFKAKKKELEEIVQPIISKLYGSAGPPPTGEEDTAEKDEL
UniProt Q14457: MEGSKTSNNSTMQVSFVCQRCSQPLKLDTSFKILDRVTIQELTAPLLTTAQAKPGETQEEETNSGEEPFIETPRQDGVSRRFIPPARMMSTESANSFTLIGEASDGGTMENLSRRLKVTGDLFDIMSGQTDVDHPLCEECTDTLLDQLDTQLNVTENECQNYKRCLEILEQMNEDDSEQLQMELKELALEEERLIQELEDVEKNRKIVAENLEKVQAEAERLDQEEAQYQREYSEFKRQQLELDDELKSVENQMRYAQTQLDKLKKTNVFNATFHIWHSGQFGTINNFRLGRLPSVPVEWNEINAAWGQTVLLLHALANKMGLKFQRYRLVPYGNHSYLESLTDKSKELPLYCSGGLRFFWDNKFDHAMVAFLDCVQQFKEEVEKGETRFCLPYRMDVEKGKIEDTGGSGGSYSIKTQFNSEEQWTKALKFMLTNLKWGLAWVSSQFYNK

Beclin 1 (BECN1) (from UniProt Q14457 1-450)
binding: binds

B1: HMGCR (protein, UniProt P04035 1-888)
chain: MLSRLFRMHGLFVASHPWEVIVGTVTLTICMMSMNMFTGNNKICGWNYECPKFEEDVLSSDIIILTITRCIAILYIYFQFQNLRQLGSKYILGIAGLFTIFSSFVFSTVVIHFLDKELTGLNEALPFFLLLIDLSRASTLAKFALSSNSQDEVRENIARGMAILGPTFTLDALVECLVIGVGTMSGVRQLEIMCCFGCMSVLANYFVFMTFFPACVSLVLELSRESREGRPIWQLSHFARVLEEEENKPNPVTQRVKMIMSLGLVLVHAHSRWIADPSPQNSTADTSKVSLGLDENVSKRIEPSVSLWQFYLSKMISMDIEQVITLSLALLLAVKYIFFEQTETESTLSLKNPITSPVVTQKKVPDNCCRREPMLVRNNQKCDSVEEETGINRERKVEVIKPLVAETDTPNRATFVVGNSSLLDTSSVLVTQEPEIELPREPRPNEECLQILGNAEKGAKFLSDAEIIQLVNAKHIPAYKLETLMETHERGVSIRRQLLSKKLSEPSSLQYLPYRDYNYSLVMGACCENVIGYMPIPVGVAGPLCLDEKEFQVPMATTEGCLVASTNRGCRAIGLGGGASSRVLADGMTRGPVVRLPRACDSAEVKAWLETSEGFAVIKEAFDSTSRFARLQKLHTSIAGRNLYIRFQSRSGDAMGMNMISKGTEKALSKLHEYFPEMQILAVSGNYCTDKKPAAINWIEGRGKSVVCEAVIPAKVVREVLKTTTEAMIEVNINKNLVGSAMAGSIGGYNAHAANIVTAIYIACGQDAAQNVGSSNCITLMEASGPTNEDLYISCTMPSIEIGTVGGGTNLLPQQACLQMLGVQGACKDNPGENARQLARIVCGTVMAGELSLMAALAAGHLVKSHMIHNRSKINLQDLQGACTKKTA
binding: binds
